Results are given in words; binding and its absence hold for the method and conditions named. In cells and extracts the contact can be indirect. A yes stands for co-enrichment or nearness to the bait. Other partners may have been found. Tags and fused reporters may be left off the sequences shown.
Target: T1, Recombinant His-tagged secretagogin (SCGN) (UniProt Q91WD9)
T1 sequence: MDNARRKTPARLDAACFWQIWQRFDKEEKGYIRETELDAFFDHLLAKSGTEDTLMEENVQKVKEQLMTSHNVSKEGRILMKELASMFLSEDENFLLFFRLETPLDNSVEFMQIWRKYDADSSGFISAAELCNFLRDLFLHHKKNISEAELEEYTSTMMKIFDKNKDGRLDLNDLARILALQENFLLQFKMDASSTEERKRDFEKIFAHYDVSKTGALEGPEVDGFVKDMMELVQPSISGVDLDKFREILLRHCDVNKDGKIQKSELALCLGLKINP
Experiment: affinity purification with mass spectrometry

Amino acid sequences for entries named in this document (tags omitted). Residues count along the entry.
UniProt P08113, residues 22-802: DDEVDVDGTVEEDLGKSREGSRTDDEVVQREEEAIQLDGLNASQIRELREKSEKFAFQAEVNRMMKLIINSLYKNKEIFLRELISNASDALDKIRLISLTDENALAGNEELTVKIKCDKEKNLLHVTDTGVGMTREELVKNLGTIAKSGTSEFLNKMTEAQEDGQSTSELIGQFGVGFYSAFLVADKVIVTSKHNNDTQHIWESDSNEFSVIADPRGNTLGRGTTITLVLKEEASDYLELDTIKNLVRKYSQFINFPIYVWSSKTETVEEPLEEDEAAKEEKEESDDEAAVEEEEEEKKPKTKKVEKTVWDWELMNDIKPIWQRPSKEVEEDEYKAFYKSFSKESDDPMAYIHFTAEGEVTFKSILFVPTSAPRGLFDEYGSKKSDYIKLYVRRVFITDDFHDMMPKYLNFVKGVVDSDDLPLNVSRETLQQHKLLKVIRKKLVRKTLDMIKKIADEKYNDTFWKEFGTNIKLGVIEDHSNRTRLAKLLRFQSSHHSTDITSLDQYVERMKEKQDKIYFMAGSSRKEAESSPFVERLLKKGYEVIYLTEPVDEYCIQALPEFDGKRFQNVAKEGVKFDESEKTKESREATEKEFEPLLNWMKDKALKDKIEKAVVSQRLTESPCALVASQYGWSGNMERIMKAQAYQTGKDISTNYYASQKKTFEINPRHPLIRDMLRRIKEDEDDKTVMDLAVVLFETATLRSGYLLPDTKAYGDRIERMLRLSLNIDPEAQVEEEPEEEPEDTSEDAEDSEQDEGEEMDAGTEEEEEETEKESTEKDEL
UniProt P20029, residues 20-655: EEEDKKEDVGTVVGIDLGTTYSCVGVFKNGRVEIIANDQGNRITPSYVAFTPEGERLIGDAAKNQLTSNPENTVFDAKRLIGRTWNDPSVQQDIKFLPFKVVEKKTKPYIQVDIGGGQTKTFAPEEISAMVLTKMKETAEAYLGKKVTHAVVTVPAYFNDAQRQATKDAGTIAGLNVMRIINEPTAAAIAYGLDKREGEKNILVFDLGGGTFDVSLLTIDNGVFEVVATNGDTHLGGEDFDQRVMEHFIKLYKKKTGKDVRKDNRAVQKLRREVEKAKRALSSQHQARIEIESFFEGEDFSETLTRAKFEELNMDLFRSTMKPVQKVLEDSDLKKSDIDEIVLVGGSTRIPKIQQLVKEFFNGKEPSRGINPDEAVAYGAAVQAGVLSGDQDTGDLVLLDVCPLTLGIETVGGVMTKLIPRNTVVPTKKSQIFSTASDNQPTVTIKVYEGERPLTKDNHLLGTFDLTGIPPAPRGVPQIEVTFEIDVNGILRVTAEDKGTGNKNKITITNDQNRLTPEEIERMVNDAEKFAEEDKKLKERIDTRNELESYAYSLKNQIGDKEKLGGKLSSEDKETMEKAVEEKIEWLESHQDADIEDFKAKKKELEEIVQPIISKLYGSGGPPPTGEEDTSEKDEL

| binding | Substance |
| --- | --- |
| binds | PDI (mouse (endogenous in MIN6)) |
| binds | GRP94 (from UniProt P08113 22-802) |
| binds | BiP (from UniProt P20029 20-655) |

— publication doi:10.1101/189324
